In patent publication US20110086042A1:
No constants are given. Whether binding was seen depends on the method and setting. Some results given as binding are weak or reduced against the parent protein; the word gives no strength.

Chains of the proteins cited; added tags and fusions are not shown.
UniProt P23258: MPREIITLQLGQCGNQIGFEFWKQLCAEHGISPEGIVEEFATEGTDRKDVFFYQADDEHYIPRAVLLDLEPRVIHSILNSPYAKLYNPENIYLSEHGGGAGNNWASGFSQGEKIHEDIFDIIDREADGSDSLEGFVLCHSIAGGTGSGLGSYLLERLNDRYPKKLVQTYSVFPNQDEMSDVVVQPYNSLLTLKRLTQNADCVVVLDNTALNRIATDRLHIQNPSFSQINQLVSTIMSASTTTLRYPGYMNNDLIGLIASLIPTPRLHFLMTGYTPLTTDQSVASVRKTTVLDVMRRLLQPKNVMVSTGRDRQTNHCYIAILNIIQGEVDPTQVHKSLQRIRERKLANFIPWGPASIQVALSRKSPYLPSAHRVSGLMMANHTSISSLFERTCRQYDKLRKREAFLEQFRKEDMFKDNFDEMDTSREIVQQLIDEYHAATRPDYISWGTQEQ

B1: centrobin-C (C-terminal 539 amino acids of centrobin, yeast two-hybrid clones) (protein)
chain: QEHQLKEHYQALQEESQAQLEREKEKSQREAQAAWETQHQLALVQSEVRRLEGELDTARRERDALQLEMSLVQARYESQRIQLESELAVQLEQRVTERLAQAQESSLRQAASLREHHRKQLQDLSGQHQQELASQLAQFKVEMAEREERQQQVAEDYELRLAREQARVCELQSGNQQLEEQRVELVERLQAMLQAHWDEANQLLSTTLPPPNPPAPPAGPSSPGPQEPEKEERRVWTMPPMAVALKPVLQQSREARDELPGAPPVLCSSSSDLSLLLGPSFQSQHSFQPLEPKPDLTSSTAGAFSALGAFHPDHRAERPFPEEDPGPDGEGLLKQGLPPAQLEGLKNFLHQLLETVPQNNENPSVDLLPPKSGPLTVPSWEEAPQVPRIPPPVHKTKVPLAMASSLFRVPEPPSSHSQGSGPSSGSPERGGDGLTFPRQLMEVSQLLRLYQARGWGALPAEDLLLYLKRLEHSGTDGRGDNVPRRNTDSRLGEIPRKEIPSQAVPRRLATAPKTEKPPARKKSGHPAPSSMRSRGGVWR
B2: centrobin α (full-length, 903 amino acids) (protein)
chain: MATSADSPSSPLGAEDLLSDSSEPPGLNQVSSEVTSQLYASLRLSRQAEATARAQLYLPSTSPPHEGLDGFAQELSRSLSVGLEKNLKKKDGSKHIFEMESVRGQLQTMLQTSRDTAYRDPLIPGAGSERREEDSFDSDSTATLLNTRPLQDLSPSSSAQALEELFPRYTSLRPGPPLNPPDFQGLRDALDSEHTRRKHCERHIQSLQTRVLELQQQLAVAVAADRKKDTMIEQLDKTLARVVEGWNRHEAERTEVLRGLQEEHQAAELTRSKQQETVTRLEQSLSEAMEALNREQESARLQQRERETLEEERQALTLRLEAEQQRCCVLQEERDAARAGQLSEHRELETLRAALEEERQTWAQQEHQLKEHYQALQEESQAQLEREKEKSQREAQAAWETQHQLALVQSEVRRLEGELDTARRERDALQLEMSLVQARYESQRIQLESELAVQLEQRVTERLAQAQESSLRQAASLREHHRKQLQDLSGQHQQELASQLAQFKVEMAEREERQQQVAEDYELRLAREQARVCELQSGNQQLEEQRVELVERLQAMLQAHWDEANQLLSTTLPPPNPPAPPAGPSSPGPQEPEKEERRVWTMPPMAVALKPVLQQSREARDELPGAPPVLCSSSSDLSLLLGPSFQSQHSFQPLEPKPDLTSSTAGAFSALGAFHPDHRAERPFPEEDPGPDGEGLLKQGLPPAQLEGLKNFLHQLLETVPQNNENPSVDLLPPKSGPLTVPSWEEAPQVPRIPPPVHKTKVPLAMASSLFRVPEPPSSHSQGSGPSSGSPERGGDGLTFPRQLMEVSQLLRLYQARGWGALPAEDLLLYLKRLEHSGTDGRGDNVPRRNTDSRLGEIPRKEIPSQAVPRRLATAPKTEKPPARKKSGHPAPSSMRSRGGVWR

Tests used:
[1] = molecular target: T1, BRCA2 C-terminal 1026 residues (yeast two-hybrid bait from pGBKT7-BRCA2-C3) (UniProt P51587); assay: yeast two-hybrid screen
T1 sequence (looked up): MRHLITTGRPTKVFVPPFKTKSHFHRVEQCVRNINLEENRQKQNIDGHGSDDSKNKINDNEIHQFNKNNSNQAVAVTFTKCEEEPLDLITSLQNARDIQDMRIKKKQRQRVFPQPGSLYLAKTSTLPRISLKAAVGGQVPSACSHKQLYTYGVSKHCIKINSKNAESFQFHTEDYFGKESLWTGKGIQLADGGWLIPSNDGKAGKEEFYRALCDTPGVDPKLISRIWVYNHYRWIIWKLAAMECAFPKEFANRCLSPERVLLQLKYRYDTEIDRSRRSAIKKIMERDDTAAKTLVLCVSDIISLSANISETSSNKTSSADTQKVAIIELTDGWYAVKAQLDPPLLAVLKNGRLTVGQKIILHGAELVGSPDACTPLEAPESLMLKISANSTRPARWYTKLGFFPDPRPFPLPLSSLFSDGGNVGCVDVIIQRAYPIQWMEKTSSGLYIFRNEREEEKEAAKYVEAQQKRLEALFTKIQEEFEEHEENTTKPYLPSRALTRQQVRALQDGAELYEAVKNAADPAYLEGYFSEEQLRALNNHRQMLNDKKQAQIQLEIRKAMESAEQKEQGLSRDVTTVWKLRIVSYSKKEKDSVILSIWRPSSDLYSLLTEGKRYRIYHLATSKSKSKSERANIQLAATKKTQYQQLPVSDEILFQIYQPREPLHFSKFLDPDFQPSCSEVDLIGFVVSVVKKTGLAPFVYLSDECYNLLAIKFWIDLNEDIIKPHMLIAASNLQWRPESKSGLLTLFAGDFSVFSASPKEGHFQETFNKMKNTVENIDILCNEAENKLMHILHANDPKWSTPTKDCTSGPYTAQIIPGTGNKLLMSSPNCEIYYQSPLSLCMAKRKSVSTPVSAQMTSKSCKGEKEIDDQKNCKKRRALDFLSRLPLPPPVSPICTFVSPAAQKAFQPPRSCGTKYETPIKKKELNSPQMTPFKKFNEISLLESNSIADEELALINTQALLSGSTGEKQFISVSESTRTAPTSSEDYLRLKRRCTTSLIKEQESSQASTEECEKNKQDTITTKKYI

γ-tubulin = γ-tubulin (UniProt P23258); assay: co-localisation in rod-like structures of cells that overexpress full-length centrobin

Binder | binding [1] | binding (γ-tubulin)
B1 | binds | –
B2 | – | binds
